From the supplement of paper PMC12067093, “Discovery and optimisation of a covalent ligand for TRIM25 and its application to targeted protein ubiquitination” (Chemical Science, 2025)
This is one part of the list.

Amino acid sequences for entries named in this document (tags omitted). A change or cut given only in a name is not applied to a line headed by its entry.
UniProt Q6L8Q7: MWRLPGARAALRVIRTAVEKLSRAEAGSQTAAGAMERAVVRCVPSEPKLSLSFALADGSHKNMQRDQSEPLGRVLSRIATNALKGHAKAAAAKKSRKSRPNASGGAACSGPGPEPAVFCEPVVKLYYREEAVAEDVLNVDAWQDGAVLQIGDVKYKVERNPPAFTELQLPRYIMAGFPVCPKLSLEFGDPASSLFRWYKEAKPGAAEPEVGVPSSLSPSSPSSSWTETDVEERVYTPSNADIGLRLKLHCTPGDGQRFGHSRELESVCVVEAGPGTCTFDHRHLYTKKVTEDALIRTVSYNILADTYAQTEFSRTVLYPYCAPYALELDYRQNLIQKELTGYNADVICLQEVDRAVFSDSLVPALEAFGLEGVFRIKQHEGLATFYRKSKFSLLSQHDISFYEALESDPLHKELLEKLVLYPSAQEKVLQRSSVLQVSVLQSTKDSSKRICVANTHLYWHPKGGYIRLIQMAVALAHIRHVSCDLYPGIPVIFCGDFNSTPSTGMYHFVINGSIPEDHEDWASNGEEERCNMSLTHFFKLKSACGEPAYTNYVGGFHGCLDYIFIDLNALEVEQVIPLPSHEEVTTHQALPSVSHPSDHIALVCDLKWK
UniProt O95613: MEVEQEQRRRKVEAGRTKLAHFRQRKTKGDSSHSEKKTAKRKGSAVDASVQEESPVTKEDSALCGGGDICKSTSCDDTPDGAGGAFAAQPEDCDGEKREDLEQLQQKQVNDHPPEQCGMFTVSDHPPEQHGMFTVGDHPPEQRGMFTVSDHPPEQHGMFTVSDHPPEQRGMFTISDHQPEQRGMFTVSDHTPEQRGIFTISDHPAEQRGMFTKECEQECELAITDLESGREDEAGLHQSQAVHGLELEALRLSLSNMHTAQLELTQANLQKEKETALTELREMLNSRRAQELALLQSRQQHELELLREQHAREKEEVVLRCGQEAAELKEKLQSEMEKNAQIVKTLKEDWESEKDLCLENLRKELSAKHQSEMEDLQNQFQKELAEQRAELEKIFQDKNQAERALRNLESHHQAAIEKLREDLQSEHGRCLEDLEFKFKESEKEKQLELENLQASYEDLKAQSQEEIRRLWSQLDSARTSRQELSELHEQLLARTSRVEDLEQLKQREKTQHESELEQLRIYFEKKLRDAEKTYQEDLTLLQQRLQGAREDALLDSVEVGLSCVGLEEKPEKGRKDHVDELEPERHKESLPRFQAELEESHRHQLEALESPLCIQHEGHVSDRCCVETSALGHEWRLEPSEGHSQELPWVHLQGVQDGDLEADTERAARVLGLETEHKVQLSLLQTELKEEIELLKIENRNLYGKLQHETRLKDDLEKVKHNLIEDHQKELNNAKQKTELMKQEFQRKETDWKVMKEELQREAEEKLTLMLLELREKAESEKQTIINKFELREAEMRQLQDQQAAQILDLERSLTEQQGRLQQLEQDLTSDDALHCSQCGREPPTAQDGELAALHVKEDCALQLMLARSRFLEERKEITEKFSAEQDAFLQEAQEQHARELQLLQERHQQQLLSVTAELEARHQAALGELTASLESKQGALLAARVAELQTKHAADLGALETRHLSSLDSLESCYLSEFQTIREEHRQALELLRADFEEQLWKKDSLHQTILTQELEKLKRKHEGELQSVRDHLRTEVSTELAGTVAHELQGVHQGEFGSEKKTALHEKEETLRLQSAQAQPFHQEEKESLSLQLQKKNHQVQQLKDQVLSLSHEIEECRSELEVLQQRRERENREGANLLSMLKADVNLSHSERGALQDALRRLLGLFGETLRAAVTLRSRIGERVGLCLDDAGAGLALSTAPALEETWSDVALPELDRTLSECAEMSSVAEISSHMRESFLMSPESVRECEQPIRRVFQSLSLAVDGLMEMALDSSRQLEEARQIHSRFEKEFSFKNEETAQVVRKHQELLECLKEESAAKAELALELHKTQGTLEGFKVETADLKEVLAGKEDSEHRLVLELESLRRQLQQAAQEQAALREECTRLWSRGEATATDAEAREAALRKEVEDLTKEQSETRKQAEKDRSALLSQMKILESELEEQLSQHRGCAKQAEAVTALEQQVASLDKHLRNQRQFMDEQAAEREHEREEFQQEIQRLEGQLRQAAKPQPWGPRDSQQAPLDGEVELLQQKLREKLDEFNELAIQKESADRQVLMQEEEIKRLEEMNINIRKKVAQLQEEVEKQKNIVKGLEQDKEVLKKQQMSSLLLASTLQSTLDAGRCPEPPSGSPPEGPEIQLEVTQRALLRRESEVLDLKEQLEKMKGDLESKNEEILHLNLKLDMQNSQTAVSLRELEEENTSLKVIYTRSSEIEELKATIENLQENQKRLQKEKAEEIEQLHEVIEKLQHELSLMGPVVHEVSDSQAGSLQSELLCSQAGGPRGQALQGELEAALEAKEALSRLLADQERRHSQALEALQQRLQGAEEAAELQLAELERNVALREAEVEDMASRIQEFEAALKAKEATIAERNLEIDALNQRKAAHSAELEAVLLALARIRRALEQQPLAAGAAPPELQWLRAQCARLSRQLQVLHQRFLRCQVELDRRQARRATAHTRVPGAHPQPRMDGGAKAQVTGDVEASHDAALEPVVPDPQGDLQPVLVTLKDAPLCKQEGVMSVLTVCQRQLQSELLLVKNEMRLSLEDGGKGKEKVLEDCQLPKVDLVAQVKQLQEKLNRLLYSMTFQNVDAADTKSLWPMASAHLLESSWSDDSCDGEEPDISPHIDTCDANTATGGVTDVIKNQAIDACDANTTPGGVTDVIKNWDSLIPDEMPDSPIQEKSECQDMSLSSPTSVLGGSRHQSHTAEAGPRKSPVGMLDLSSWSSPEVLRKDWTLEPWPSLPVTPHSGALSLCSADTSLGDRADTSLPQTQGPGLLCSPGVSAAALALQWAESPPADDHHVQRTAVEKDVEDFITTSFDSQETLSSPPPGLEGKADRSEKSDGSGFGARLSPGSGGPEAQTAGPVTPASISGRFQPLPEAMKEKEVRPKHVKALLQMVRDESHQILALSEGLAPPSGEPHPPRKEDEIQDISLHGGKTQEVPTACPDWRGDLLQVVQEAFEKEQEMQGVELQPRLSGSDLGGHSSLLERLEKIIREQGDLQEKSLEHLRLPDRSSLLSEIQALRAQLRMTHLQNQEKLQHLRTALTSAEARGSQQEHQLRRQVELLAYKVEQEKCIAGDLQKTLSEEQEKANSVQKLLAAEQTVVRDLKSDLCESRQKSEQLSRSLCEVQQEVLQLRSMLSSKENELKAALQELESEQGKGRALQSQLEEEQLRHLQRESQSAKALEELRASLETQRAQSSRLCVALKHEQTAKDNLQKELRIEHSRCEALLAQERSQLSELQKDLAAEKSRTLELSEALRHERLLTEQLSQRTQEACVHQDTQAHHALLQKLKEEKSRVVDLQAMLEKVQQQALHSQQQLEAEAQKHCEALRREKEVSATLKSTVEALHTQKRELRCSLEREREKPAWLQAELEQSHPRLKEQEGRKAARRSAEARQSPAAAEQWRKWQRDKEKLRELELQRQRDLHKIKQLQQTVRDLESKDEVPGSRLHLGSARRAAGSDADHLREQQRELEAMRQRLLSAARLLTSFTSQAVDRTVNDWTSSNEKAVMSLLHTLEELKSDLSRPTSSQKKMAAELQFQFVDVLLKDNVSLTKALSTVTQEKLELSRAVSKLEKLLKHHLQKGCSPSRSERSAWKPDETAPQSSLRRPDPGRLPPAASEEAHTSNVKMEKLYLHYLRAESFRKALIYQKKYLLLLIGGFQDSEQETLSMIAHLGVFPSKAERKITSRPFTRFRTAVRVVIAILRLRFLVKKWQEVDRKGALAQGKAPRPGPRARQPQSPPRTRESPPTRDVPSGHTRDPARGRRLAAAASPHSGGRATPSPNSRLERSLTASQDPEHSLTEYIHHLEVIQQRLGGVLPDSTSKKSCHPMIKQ
UniProt Q15154: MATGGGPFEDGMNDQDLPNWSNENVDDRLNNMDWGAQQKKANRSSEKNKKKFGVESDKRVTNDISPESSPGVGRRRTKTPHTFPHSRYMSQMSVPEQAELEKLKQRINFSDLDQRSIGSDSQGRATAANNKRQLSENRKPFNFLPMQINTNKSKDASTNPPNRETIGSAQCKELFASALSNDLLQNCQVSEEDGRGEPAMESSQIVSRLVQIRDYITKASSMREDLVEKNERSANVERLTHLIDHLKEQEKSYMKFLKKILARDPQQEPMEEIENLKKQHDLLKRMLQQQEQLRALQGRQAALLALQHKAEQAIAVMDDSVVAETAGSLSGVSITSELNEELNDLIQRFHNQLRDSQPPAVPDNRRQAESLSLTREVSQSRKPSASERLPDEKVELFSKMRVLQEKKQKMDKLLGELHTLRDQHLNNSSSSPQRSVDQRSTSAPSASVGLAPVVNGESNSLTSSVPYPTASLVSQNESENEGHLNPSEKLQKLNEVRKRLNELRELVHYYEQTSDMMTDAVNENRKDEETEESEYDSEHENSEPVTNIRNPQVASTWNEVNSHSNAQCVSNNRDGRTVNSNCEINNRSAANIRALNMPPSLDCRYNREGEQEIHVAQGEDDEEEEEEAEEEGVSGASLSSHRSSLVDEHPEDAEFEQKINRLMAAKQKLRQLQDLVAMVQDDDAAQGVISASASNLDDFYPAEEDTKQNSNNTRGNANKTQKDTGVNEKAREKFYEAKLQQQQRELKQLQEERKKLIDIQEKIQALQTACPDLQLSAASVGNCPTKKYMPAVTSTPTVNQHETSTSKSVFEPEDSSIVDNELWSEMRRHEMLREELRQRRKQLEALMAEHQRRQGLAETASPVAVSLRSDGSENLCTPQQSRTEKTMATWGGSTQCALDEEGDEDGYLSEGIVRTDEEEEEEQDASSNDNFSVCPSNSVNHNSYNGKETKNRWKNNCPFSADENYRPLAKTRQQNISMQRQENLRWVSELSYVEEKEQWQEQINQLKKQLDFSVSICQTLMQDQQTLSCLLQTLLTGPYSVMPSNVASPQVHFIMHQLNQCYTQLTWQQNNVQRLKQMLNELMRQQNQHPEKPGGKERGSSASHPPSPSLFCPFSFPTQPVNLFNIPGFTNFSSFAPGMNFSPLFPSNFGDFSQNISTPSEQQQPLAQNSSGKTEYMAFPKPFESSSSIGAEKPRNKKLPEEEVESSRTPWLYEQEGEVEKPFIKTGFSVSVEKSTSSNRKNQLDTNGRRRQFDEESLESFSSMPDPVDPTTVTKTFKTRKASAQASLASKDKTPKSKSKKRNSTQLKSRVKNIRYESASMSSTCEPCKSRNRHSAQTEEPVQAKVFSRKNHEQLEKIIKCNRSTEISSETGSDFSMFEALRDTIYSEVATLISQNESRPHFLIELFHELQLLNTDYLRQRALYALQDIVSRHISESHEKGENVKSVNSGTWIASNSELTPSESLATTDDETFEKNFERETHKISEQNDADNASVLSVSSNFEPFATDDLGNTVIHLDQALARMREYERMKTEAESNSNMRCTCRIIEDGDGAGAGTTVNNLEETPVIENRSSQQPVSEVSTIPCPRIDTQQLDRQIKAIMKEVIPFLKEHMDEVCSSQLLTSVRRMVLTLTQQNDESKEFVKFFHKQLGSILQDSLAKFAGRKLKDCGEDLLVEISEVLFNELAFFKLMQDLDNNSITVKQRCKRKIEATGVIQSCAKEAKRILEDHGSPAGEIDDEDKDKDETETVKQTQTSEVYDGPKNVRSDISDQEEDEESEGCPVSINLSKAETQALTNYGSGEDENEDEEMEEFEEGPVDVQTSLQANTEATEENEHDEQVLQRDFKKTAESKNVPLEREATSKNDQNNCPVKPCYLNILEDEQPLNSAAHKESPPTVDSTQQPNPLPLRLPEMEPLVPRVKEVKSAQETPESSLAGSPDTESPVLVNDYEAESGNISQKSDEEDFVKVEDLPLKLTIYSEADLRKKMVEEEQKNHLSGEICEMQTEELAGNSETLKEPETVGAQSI
UniProt O00151: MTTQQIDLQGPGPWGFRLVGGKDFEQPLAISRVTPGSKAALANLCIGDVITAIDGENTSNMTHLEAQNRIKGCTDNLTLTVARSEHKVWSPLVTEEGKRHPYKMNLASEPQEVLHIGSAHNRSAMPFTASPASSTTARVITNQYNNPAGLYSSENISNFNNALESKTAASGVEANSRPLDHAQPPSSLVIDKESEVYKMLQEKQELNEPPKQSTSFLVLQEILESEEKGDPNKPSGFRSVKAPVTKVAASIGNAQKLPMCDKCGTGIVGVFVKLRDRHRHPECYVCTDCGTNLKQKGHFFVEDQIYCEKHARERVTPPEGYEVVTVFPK
UniProt Q9H2J4: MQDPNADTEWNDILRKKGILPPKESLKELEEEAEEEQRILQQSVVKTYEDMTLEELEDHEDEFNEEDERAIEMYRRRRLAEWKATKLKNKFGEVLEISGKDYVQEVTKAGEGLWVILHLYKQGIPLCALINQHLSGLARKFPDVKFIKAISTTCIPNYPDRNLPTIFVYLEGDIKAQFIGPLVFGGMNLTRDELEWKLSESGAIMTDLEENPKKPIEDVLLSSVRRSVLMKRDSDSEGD

The targets below were run with Cc1cc(ccc1-c1ccccc1)C(=O)N1CCCN(CC1)C(=O)CCl [compound 10] (assay: probe-labelled cysteine peptide fold change vs DMSO (competition) (log2 fold change); higher = less target engagement (more negative = stronger competition)). Details: 50 µM; THP-1; incubation time: 4 h.
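Further: competitive profiling in live THP-1 cells: cysteine peptides tagged with an iodoacetamide desthiobiotin (IA-DTB) probe, intensity after compound treatment relative to DMSO-treated cells.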

Going from “PDIA6_Q15084_55_EVIQSDSLWLVEFYAPWCGHCQR (UniProt Q15084)” to “PCBP2_Q15366-2_302_GYWAGLDASAQTTSHELTIPNDLIGCIIGR (UniProt Q15366)”, the “probe-labelled cysteine peptide fold change” value rises from -0.44 to 0.222.

Compared with “PBK_Q96KB5_22_SVLCSTPTINIPASPFMQK (UniProt Q96KB5)”, “PDE12_Q6L8Q7_348_ELTGYNADVICLQEVDR (UniProt Q6L8Q7)” is higher in “probe-labelled cysteine peptide fold change” value: -0.231 for the first, 0.326 for the second.

First: PDXP_Q96GD0_171_EACAHLRDPECLLVATDRDPWHPLSDGSR (UniProt Q96GD0)
Second: PDLIM7_Q9NR12_311_YLVALGHAYHPEEFVCSQCGK (UniProt Q9NR12)
The “probe-labelled cysteine peptide fold change” value of the first is lower: -0.182 for the first, -0.0245 for the second.

Compared with “PDIA6_Q15084_291+297_RTCEEHQLCVVAVLPHILDTGAAGR (UniProt Q15084)”, “PDE12_Q6L8Q7_250_LHCTPGDGQR (UniProt Q6L8Q7)” is higher in “probe-labelled cysteine peptide fold change” value: -0.282 for the first, -0.0481 for the second.

Compared with “PAXIP1_Q6ZW49_671_CVTAHWLNTVLK (UniProt Q6ZW49)”, “PDHB_P11177_249_PVGHCLEAAAVLSK (UniProt P11177)” is higher in “probe-labelled cysteine peptide fold change” value: -0.477 for the first, -0.102 for the second.

Going from “PDLIM2_Q96JY6_160_SFQSLACSPGLPAADR (UniProt Q96JY6)” to “PAXX_Q9BUH6_180_CPGESLINPGFK (UniProt Q9BUH6)”, the “probe-labelled cysteine peptide fold change” value falls from -0.343 to -0.56.

Compared with “PCNT_O95613_321_CGQEAAELK (UniProt O95613)”, “PDZD8_Q8NEN9_667_DVTSETSCPTK (UniProt Q8NEN9)” is lower in “probe-labelled cysteine peptide fold change” value: -0.00438 for the first, -0.476 for the second.

Compared with “PATZ1_Q9HBE1_610_KYPCPECGSFFR (UniProt Q9HBE1)”, “PDK1_Q15118_223_HIGSINPNCNVLEVIK (UniProt Q15118)” is higher in “probe-labelled cysteine peptide fold change” value: 0.151 for the first, 0.498 for the second.

Compared with “PEAK3_Q6ZS72_318_GCATTGPPR (UniProt Q6ZS72)”, “PBK_Q96KB5_70_INPICNDHYR (UniProt Q96KB5)” is lower in “probe-labelled cysteine peptide fold change” value: -0.144 for the first, -0.279 for the second.

First: PDCD6IP_Q8WUM4_250_HCIMQANAEYHQSILAK (UniProt Q8WUM4)
Second: PDS5B_Q9NTI5_676_VLSFTHPISFHSAETFESLLACLK (UniProt Q9NTI5)
The “probe-labelled cysteine peptide fold change” value of the first is lower: -0.313 for the first, -0.0917 for the second.

First: PCM1_Q15154_1717_KIEATGVIQSCAK (UniProt Q15154)
Second: PDLIM1_O00151_307_GHFFVEDQIYCEK (UniProt O00151)
The “probe-labelled cysteine peptide fold change” value of the first is lower: -0.411 for the first, -0.017 for the second.

Compared with “PCNT_O95613_70_EDSALCGGGDICK (UniProt O95613)”, “PDCD11_Q14690_694_VLCLSQSEGR (UniProt Q14690)” is higher in “probe-labelled cysteine peptide fold change” value: -0.306 for the first, 0.0308 for the second.

First: PDIA3_P30101_92_VDCTANTNTCNK (UniProt P30101)
Second: PDCD2L_Q9BRP1_191_LQDAVLGAAHPVPPGLPLFLPYYICVADEDDYRDFVNLDHAHSLLR (UniProt Q9BRP1)
The “probe-labelled cysteine peptide fold change” value of the first is higher: 0.179 for the first, 0.166 for the second.

Compared with “PDLIM1_O00151_286_HPECYVCTDCGTNLK (UniProt O00151)”, “PCM1_Q15154_582_TVNSNCEINNR (UniProt Q15154)” is lower in “probe-labelled cysteine peptide fold change” value: -0.0146 for the first, -0.271 for the second.

Compared with “PARVG_Q9HBI0_314_VLYGLFCK (UniProt Q9HBI0)”, “PDIA6_Q15084_297_TCEEHQLCVVAVLPHILDTGAAGR (UniProt Q15084)” is lower in “probe-labelled cysteine peptide fold change” value: -0.000829 for the first, -0.0194 for the second.

Compared with “PDCL3_Q9H2J4_127_QGIPLCALINQHLSGLAR (UniProt Q9H2J4)”, “PDE3B_Q13370_1059_IFCQLMHHLTENHK (UniProt Q13370)” is lower in “probe-labelled cysteine peptide fold change” value: 0.314 for the first, -0.491 for the second.

Going from “PCYT1A_P49585_139_GFTVMNENERYDAVQHCR (UniProt P49585)” to “PDS5B_Q9NTI5_333_FNDIHVPIRLECVK (UniProt Q9NTI5)”, the “probe-labelled cysteine peptide fold change” value rises from -0.458 to -0.279.

Compared with “PCBP1_Q15365_109_LVVPATQCGSLIGK (UniProt Q15365)”, “PDPR_Q8NCN5_735_FFAFWGQDINNLTTPLECGR (UniProt Q8NCN5)” is higher in “probe-labelled cysteine peptide fold change” value: -0.243 for the first, 0.123 for the second.

Going from “PDCD4_Q53EL6_227_LLSDLCGTVMSTTDVEK (UniProt Q53EL6)” to “PDCD6IP_Q8WUM4_691_CSDIVFAR (UniProt Q8WUM4)”, the “probe-labelled cysteine peptide fold change” value falls from 0.251 to -0.0695.
